# Reference: the supplement of paper PMC8728848
# Some of the results follow.
# B1: Aap arpt (Staphylococcus epidermidis) (protein)
# chain: NNEAPQMSSTLQAEEGSNAEAPQSEPTKAEEGGNAEAAQSEPTKAEEGGNAEAPQSEPTKAEEGGNAEAAQSEPTKTEEGSNVKAAQSEPTKAEEGSNAEAPQSEPTKTEEGSNAKAAQSEPTKAEEGGNAEAAQSEPTKTEEGSNAEAPQSEPTKAEEGGYAEAPQSEPTKTEEGGNAEAPNVPTIKA
# Legend:
# Assay in all cases: glycan array binding signal (z-score within array); higher = stronger binding
# Conditions in all cases: glycan notation: IUPAC condensed, linker removed
# [1] = biological target: Fuc(a1-3)[Gal3S(b1-4)]GlcNAc6S
# Method in brief: (§1)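 The Consortium for Functional Glycomics database supplied 3228 glycan arrays, of which those lacking an available protein sequence were dropped. The binding signal, a within-array Z-score, was averaged across arrays of the same protein sequence and across linkers. Negative scores can be read as non-binding.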
# [2] = biological target: Fuc(a1-3)[GalNAc(b1-4)]GlcNAc
# Method in brief: as §1
# [3] = biological target: Fuc(a1-3)[GalNAc(b1-4)]GlcNAc6S
# Method in brief: as §1
# Fuc(a1-4)GlcNAc = biological target: Fuc(a1-4)GlcNAc
# Method in brief: as §1
# Fuc(b1-3)GlcNAc = biological target: Fuc(b1-3)GlcNAc
# Method in brief: as §1
# Gal(a1-2)Gal = biological target: Gal(a1-2)Gal
# Method in brief: as §1
# Gal(a1-3)Gal = biological target: Gal(a1-3)Gal
# Method in brief: as §1
# Gal(a1-3)Gal(b1-3)GlcNAc = biological target: Gal(a1-3)Gal(b1-3)GlcNAc
# Method in brief: as §1
# [4] = biological target: Gal(a1-3)Gal(b1-3)GlcNAc(b1-2)Man
# Method in brief: as §1
# [5] = biological target: Gal(a1-3)Gal(b1-3)GlcNAc(b1-2)Man(a1-3)[Gal(a1-3)Gal(b1-3)GlcNAc(b1-2)Man(a1-6)]Man(b1-4)GlcNAc(b1-4)GlcNAc
# Method in brief: as §1
# [6] = biological target: Gal(a1-3)Gal(b1-3)GlcNAc(b1-3)GalNAc
# Method in brief: as §1
# [7] = biological target: Gal(a1-3)Gal(b1-3)GlcNAc(b1-6)GalNAc
# Method in brief: as §1
# [8] = biological target: Gal(a1-3)Gal(b1-3)[Fuc(a1-4)]GlcNAc(b1-2)Man(a1-3)[Gal(a1-3)Gal(b1-3)[Fuc(a1-4)]GlcNAc(b1-2)Man(a1-6)]Man(b1-4)GlcNAc(b1-4)GlcNAc
# Method in brief: as §1
# Gal(a1-3)Gal(b1-4)Glc = biological target: Gal(a1-3)Gal(b1-4)Glc
# Method in brief: as §1
# Gal(a1-3)Gal(b1-4)GlcNAc = biological target: Gal(a1-3)Gal(b1-4)GlcNAc
# Method in brief: as §1
# [9] = biological target: Gal(a1-3)Gal(b1-4)GlcNAc(b1-2)Man
# Method in brief: as §1
# [10] = biological target: Gal(a1-3)Gal(b1-4)GlcNAc(b1-2)Man(a1-3)[Gal(a1-3)Gal(b1-4)GlcNAc(b1-2)Man(a1-6)]Man(b1-4)GlcNAc(b1-4)GlcNAc
# Method in brief: as §1
# [11] = biological target: Gal(a1-3)Gal(b1-4)GlcNAc(b1-3)GalNAc
# Method in brief: as §1
# [12] = biological target: Gal(a1-3)Gal(b1-4)GlcNAc(b1-6)GalNAc
# Method in brief: as §1
# [13] = biological target: Gal(a1-3)Gal(b1-4)[Fuc(a1-3)]GlcNAc
# Method in brief: as §1
# [14] = biological target: Gal(a1-3)Gal(b1-4)[Fuc(a1-3)]GlcNAc(b1-2)Man(a1-3)[Gal(a1-3)Gal(b1-4)[Fuc(a1-3)]GlcNAc(b1-2)Man(a1-6)]Man(b1-4)GlcNAc(b1-4)GlcNAc
# Method in brief: as §1
# Gal(a1-3)GalNAc = biological target: Gal(a1-3)GalNAc
# Method in brief: as §1
# [15] = biological target: Gal(a1-3)[Gal(a1-4)]Gal(b1-4)GlcNAc
# Method in brief: as §1
# [16] = biological target: Gal(a1-4)Gal(b1-3)GlcNAc(b1-2)Man(a1-3)[Gal(a1-4)Gal(b1-3)GlcNAc(b1-2)Man(a1-6)]Man(b1-4)GlcNAc(b1-4)GlcNAc
# Method in brief: as §1
# Gal(a1-4)Gal(b1-4)Glc = biological target: Gal(a1-4)Gal(b1-4)Glc
# Method in brief: as §1
# Gal(a1-4)Gal(b1-4)GlcNAc = biological target: Gal(a1-4)Gal(b1-4)GlcNAc
# Method in brief: as §1
# [17] = biological target: Gal(a1-4)Gal(b1-4)GlcNAc(b1-2)Man(a1-3)[Gal(a1-4)Gal(b1-4)GlcNAc(b1-2)Man(a1-6)]Man(b1-4)GlcNAc(b1-4)GlcNAc
# Method in brief: as §1
# [18] = biological target: Gal(a1-4)Gal(b1-4)GlcNAc(b1-3)Gal(b1-4)Glc
# Method in brief: as §1
# Gal(a1-4)GlcNAc = biological target: Gal(a1-4)GlcNAc
# Method in brief: as §1
# Gal(a1-6)Glc = biological target: Gal(a1-6)Glc
# Method in brief: as §1
# Gal(b1-2)Gal = biological target: Gal(b1-2)Gal
# Method in brief: as §1
# Gal(b1-3)Gal = biological target: Gal(b1-3)Gal
# Method in brief: as §1
# Gal(b1-3)Gal(b1-4)GlcNAc = biological target: Gal(b1-3)Gal(b1-4)GlcNAc
# Method in brief: as §1
# Gal(b1-3)GalNAc = biological target: Gal(b1-3)GalNAc
# Method in brief: as §1
# [19] = biological target: Gal(b1-3)GalNAc(a1-3)[Fuc(a1-2)]Gal(b1-4)Glc
# Method in brief: as §1
# [20] = biological target: Gal(b1-3)GalNAc(a1-3)[Fuc(a1-2)]Gal(b1-4)GlcNAc
# Method in brief: as §1
# Gal(b1-3)GalNAc(b1-3)Gal = biological target: Gal(b1-3)GalNAc(b1-3)Gal
# Method in brief: as §1
# [21] = biological target: Gal(b1-3)GalNAc(b1-3)Gal(a1-4)Gal(b1-4)Glc
# Method in brief: as §1
# [22] = biological target: Gal(b1-3)GalNAc(b1-4)Gal(b1-4)Glc
# Method in brief: as §1
# [23] = biological target: Gal(b1-3)GalNAc(b1-4)[Neu5Ac(a2-3)]Gal(b1-4)Glc
# Method in brief: as §1
# Gal(b1-3)GlcNAc = biological target: Gal(b1-3)GlcNAc
# Method in brief: as §1
# [24] = biological target: Gal(b1-3)GlcNAc(a1-3)Gal(b1-4)GlcNAc
# Method in brief: as §1
# [25] = biological target: Gal(b1-3)GlcNAc(a1-6)Gal(b1-4)GlcNAc
# Method in brief: as §1
# Gal(b1-3)GlcNAc(b1-2)Man = biological target: Gal(b1-3)GlcNAc(b1-2)Man
# Method in brief: as §1
# [26] = biological target: Gal(b1-3)GlcNAc(b1-2)Man(a1-3)[Gal(b1-3)GlcNAc(b1-2)Man(a1-6)]Man(b1-4)GlcNAc(b1-4)GlcNAc
# Method in brief: as §1
binder,measurement,setting,value
B1,glycan array binding signal (z-score),[1],-0.38
same,glycan array binding signal (z-score),[2],-0.157
same,glycan array binding signal (z-score),[3],0.246
same,glycan array binding signal (z-score),Fuc(a1-4)GlcNAc,0.688
same,glycan array binding signal (z-score),Fuc(b1-3)GlcNAc,-0.03
same,glycan array binding signal (z-score),Gal(a1-2)Gal,0.231
same,glycan array binding signal (z-score),Gal(a1-3)Gal,0.867
same,glycan array binding signal (z-score),Gal(a1-3)Gal(b1-3)GlcNAc,-0.659
same,glycan array binding signal (z-score),[4],-0.261
same,glycan array binding signal (z-score),[5],1.03
same,glycan array binding signal (z-score),[6],0.863
same,glycan array binding signal (z-score),[7],-0.773
same,glycan array binding signal (z-score),[8],0.296
same,glycan array binding signal (z-score),Gal(a1-3)Gal(b1-4)Glc,0.127
same,glycan array binding signal (z-score),Gal(a1-3)Gal(b1-4)GlcNAc,-0.688
same,glycan array binding signal (z-score),[9],0.07
same,glycan array binding signal (z-score),[10],-0.946
same,glycan array binding signal (z-score),[11],0.34
same,glycan array binding signal (z-score),[12],3.25
same,glycan array binding signal (z-score),[13],-1.04
same,glycan array binding signal (z-score),[14],-0.232
same,glycan array binding signal (z-score),Gal(a1-3)GalNAc,-0.699
same,glycan array binding signal (z-score),[15],-0.562
same,glycan array binding signal (z-score),[16],-0.328
same,glycan array binding signal (z-score),Gal(a1-4)Gal(b1-4)Glc,0.092
same,glycan array binding signal (z-score),Gal(a1-4)Gal(b1-4)GlcNAc,-0.634
same,glycan array binding signal (z-score),[17],0.476
same,glycan array binding signal (z-score),[18],0.169
same,glycan array binding signal (z-score),Gal(a1-4)GlcNAc,-1.01
same,glycan array binding signal (z-score),Gal(a1-6)Glc,-0.445
same,glycan array binding signal (z-score),Gal(b1-2)Gal,-0.524
same,glycan array binding signal (z-score),Gal(b1-3)Gal,0.993
same,glycan array binding signal (z-score),Gal(b1-3)Gal(b1-4)GlcNAc,0.621
same,glycan array binding signal (z-score),Gal(b1-3)GalNAc,-0.104
same,glycan array binding signal (z-score),[19],-0.545
same,glycan array binding signal (z-score),[20],-0.871
same,glycan array binding signal (z-score),Gal(b1-3)GalNAc(b1-3)Gal,-1.35
same,glycan array binding signal (z-score),[21],0.911
same,glycan array binding signal (z-score),[22],0.305
same,glycan array binding signal (z-score),[23],-0.13
same,glycan array binding signal (z-score),Gal(b1-3)GlcNAc,0.586
same,glycan array binding signal (z-score),[24],-0.865
same,glycan array binding signal (z-score),[25],0.977
same,glycan array binding signal (z-score),Gal(b1-3)GlcNAc(b1-2)Man,0.25
same,glycan array binding signal (z-score),[26],0.414

# Given with tabs: entries from further up.
binder	measurement	setting	value
B1	glycan array binding signal (z-score)	[22]	0.305
same	glycan array binding signal (z-score)	[23]	-0.13
same	glycan array binding signal (z-score)	Gal(b1-3)GlcNAc	0.586
